Experimental data taken from paper PMC7862700.
This is a selection; strong and weak results do not stand in their true shares. At the low end of the ranking, values are background and their order means little.

By UniProt entry, the sequences of proteins in these tests, tags left out. Where a name states a change or a piece, a line headed by the entry shows the natural chain unless it says otherwise.
UniProt O43186: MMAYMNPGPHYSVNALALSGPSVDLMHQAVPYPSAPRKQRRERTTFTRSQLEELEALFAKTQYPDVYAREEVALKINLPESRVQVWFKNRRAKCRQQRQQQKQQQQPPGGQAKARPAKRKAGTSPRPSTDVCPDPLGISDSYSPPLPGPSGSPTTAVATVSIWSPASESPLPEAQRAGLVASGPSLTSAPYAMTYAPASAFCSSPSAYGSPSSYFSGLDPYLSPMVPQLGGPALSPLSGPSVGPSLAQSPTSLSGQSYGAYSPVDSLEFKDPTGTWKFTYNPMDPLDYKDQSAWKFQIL

Tests used:
Assay in all cases: DAPPL (digital affinity profiling via proximity ligation, sequencing)
Details in all cases: 10 mM Tris-HCl pH 7.5, 50 mM NaCl, 1 mM DTT, 4% glycerol, room temperature, 30 min; GST-TFs on glutathione beads, 16-mer random dsDNA library, 0.1% …; high values mean tight binding; double strand, one strand shown; scale: fold enrichment (6-mer frequency, TF over GST control)
FEV = molecular target: T1, FEV (UniProt Q99581)
T1 sequence: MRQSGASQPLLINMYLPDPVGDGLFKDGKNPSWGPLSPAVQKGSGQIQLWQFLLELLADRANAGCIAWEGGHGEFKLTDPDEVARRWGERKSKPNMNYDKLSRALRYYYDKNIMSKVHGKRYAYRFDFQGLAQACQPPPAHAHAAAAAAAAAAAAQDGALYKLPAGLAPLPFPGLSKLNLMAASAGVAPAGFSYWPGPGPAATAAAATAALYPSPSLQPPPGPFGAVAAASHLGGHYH

CRX = CRX (UniProt O43186)
ELF5 = molecular target: T2, ELF5 (UniProt Q9UKW6-2)
T2 sequence: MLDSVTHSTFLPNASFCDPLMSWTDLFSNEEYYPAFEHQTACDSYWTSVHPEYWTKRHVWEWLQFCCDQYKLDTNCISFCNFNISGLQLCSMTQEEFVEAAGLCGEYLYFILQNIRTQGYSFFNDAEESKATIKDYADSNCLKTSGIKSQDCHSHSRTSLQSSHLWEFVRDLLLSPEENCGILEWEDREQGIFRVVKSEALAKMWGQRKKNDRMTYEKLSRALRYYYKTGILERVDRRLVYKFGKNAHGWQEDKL

| Sequence | binding signal (FEV) | binding signal (CRX) | binding signal (ELF5) |
| --- | --- | --- | --- |
| CTCGGA | 0.822 | 0.787 | 0.785 |
| GCGGTG | 0.536 | 0.388 | 0.526 |
| AGGGGA | 0.59 | 0.596 | 0.624 |
| GGTTGG | 0.689 | 0.511 | 0.759 |
| CAGTAG | 0.588 | 0.589 | 0.566 |
| CGTGGC | 0.9 | 0.715 | 0.848 |
| GTAACG | 0.926 | 0.719 | 0.946 |
| CCTGTC | 0.906 | 0.639 | 0.96 |
| GAAGAG | 0.841 | 0.69 | 0.958 |
| CCCGTG | 0.538 | 0.421 | 0.528 |
| GCGTGT | 0.529 | 0.43 | 0.588 |
| CCGAGT | 0.914 | 0.822 | 0.929 |
| GCCGCG | 0.799 | 0.668 | 0.693 |
| AAGAGG | 0.739 | 0.862 | 0.923 |
| GGGTGT | 0.671 | 0.523 | 0.751 |
| AGCGCA | 0.948 | 0.853 | 0.818 |
| GGTTGC | 0.903 | 0.546 | 0.869 |
| AATCGG | 0.558 | 0.85 | 0.542 |
| GGTAGG | 0.648 | 0.497 | 0.636 |
| GTGCAG | 0.709 | 0.536 | 0.7 |
| GTGTGG | 0.641 | 0.5 | 0.641 |
| GGGAGA | 0.327 | 0.287 | 0.31 |
| AGGCCT | 0.952 | 1.07 | 0.93 |
| GCGTGC | 0.792 | 0.589 | 0.752 |
| AGATAC | 0.92 | 0.873 | 0.867 |
| CGTGAC | 0.579 | 0.402 | 0.543 |
| AGCGGT | 0.66 | 0.662 | 0.658 |
| GTGAAT | 0.791 | 0.754 | 0.817 |
| GTTGAG | 0.662 | 0.587 | 0.634 |
| AAGCCA | 0.894 | 1.12 | 0.789 |

Two records picked at random from the list so far:

| Sequence | binding signal (FEV) | binding signal (CRX) | binding signal (ELF5) |
| --- | --- | --- | --- |
| CGTGAC | 0.579 | 0.402 | 0.543 |
| CCGAGT | 0.914 | 0.822 | 0.929 |
